## Screening data

The results are deposited in PubChem (AID1224904; Broad Institute, 2016).

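Control-channel Italica luciferase signal in doxycycline-induced 293T-iDUX4 cells, given as percent activity after a 24-hour treatment. The test concentration is not given here. Percent change in the Italica control signal; more negative values mean stronger inhibition, which points to nonspecific, tet-on or cytotoxic effects.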

Values are in %. Common to all entries: measured here: Italica tet-on control reporter. Part of the compounds only, not a random draw; the main read-out is not listed here.

structure,activity change (%)
O=C(C[C@H]1C[C@H]2c3cc(NS(=O)(=O)c4ccc(F)cc4)ccc3O[C@H]2[C@@H](CO)O1)N1CCc2ccccc2C1,-15.45
COc1ccc2c3c(n(C)c2c1)[C@H](CO)N(CC1CC1)CC31CN(C(=O)c2ccccc2)C1,-15.67
CN1c2ccc(-c3ccccc3)cc2[C@H]2[C@H](CCN2C(=O)c2ccccc2)[C@H]1CO,-13.56
C[C@@H]1CN([C@@H](C)CO)C(=O)c2c(c3ccccc3n2C)-c2ccccc2CO[C@@H]1CN(C)S(=O)(=O)c1ccc(Cl)cc1,-18.4
O=C(C1CCC1)N1CC[C@@H]2[C@H](CO)Nc3ccc(C#Cc4cccc(F)c4)cc3[C@@H]21,-5.033
O=C(C[C@H]1CC[C@H]2[C@@H](COC[C@@H](O)CN2Cc2nccs2)O1)NCc1ccc(-c2ccccc2)cc1,-12.92
O=C(Nc1cc(F)ccc1F)N1CC(=O)N2[C@H](C1)[C@@H](c1ccc(-c3ccc(F)cc3)cc1)[C@@H]2CO,-13.51
C[C@H](O)C#Cc1ccc([C@H]2[C@H]3CN(C(=O)Nc4ccccc4)CCCCN3[C@H]2CO)cc1,-45.27
O=C(C[C@H]1C[C@@H]2c3cc(NC(=O)c4ccc5c(c4)OCO5)ccc3O[C@@H]2[C@@H](CO)O1)NCc1ccccn1,-4.05
OC[C@H]1[C@@H](c2ccccc2)C2(CN(Cc3ccccc3F)C2)N1Cc1ccccc1F,-23.78
Cc1ccc(S(=O)(=O)Nc2ccc3c(c2)C(=O)N([C@@H](C)CO)C[C@H](C)[C@H](CN(C)C(=O)NC2CCCCC2)OCCCC[C@H](C)O3)cc1,-35.86
C[C@H](CO)N1C[C@H](C)[C@@H](CN(C)C(=O)NC2CCCCC2)OCc2ccccc2-c2c(n(C)c3ccccc23)C1=O,-50.16
O=C(C1CCCCC1)N1[C@H](CO)[C@@H](c2ccccc2)C12CN(Cc1cccc(Cl)c1)C2,-16.22
COc1ccc(-c2ccc3c(c2)[C@@H]2[C@@H](CCN2C(=O)c2cccc(F)c2)[C@@H](CO)N3)cc1,-25.38
Cn1cnc(S(=O)(=O)N2C[C@@H]3N[C@H](C2)C3c2ccc(-c3ccccc3F)cc2)c1 (some centres not stated),-76.26
COc1ccccc1C#Cc1ccc([C@@H]2[C@H](CO)N3CCCCN(S(C)(=O)=O)C[C@@H]23)cc1,-0.06623
N#C[C@@H]1[C@@H](c2ccc(-c3ccccc3F)cc2)[C@@H](CO)N1C(=O)Cc1ccccc1,-22.57
C[C@@H]1CN([C@H](C)CO)C(=O)c2c(c3ccccc3n2C)-c2ccccc2CO[C@H]1CN(C)S(=O)(=O)c1ccccc1F,-3.709
COc1cccc(S(=O)(=O)N2CCCCN3[C@H](CO)[C@H](c4ccc(C#CCC(C)C)cc4)[C@H]3C2)c1,-34.59
COCC(=O)N1CC[C@@H]2[C@H]1c1cc(-c3cccc(C(=O)N(C)C)c3)ccc1N[C@@H]2CO,-27.1
O=S(=O)(c1ccc(-c2ccccc2)cc1)N1C[C@@H]2N[C@H](C1)C2c1ccc(-c2cncnc2)cc1 (some centres not stated),-19.49
COc1ccc(S(=O)(=O)N2C[C@@H](O)COC[C@H]3O[C@H](CC(=O)NCc4ccc(Cl)c(Cl)c4)CC[C@@H]32)cc1,-20.58
C[C@H](CO)N1C[C@H](C)[C@H](CN(C)Cc2ccc3c(c2)OCO3)OCc2ccccc2-c2c(n(C)c3ccccc23)C1=O,-27.5
O=C(C[C@H]1CC[C@H]2[C@@H](COC[C@H](O)CN2Cc2cccc(Cl)c2)O1)NCc1cccc(F)c1,-20.52
O=C(c1cccc(F)c1)N1CCCCN2[C@@H](CO)[C@@H](c3ccc(-c4ccccc4)cc3)[C@@H]2C1,-15.84
COc1ccc(CN2C[C@H](C)[C@@H](OC)CN(C)C(=O)c3cc(NC(=O)c4nc5ccccc5s4)ccc3OC[C@H]2C)cc1,-6.315
COc1ccc2c3c([nH]c2c1)[C@@H](CO)N(Cc1ccccc1F)CC31CCN(C(=O)C2CC2)CC1,-7.861
CO[C@H]1CN(C)C(=O)c2cc(NC(=O)Nc3cccc(F)c3)ccc2OC[C@H](C)N(C(=O)C2CC2)C[C@H]1C,-25.13
O=C(Nc1ccccc1)N1CCCCN2[C@H](CO)[C@@H](c3ccc(Br)cc3)[C@@H]2C1,-12.27
COc1ccccc1CN1C[C@@H]2N[C@H](C1)C2c1ccc(-c2ccccc2OC)cc1 (some centres not stated),-17.6
CC(C)NC[C@H]1[C@@H](c2ccc(C3=CCCCC3)cc2)[C@@H](CO)N1C(=O)NC(C)C,-13.94
O=C(C[C@@H]1CC[C@@H]2[C@H](COC[C@@H](O)CN2Cc2nccs2)O1)NCc1ccc(-c2ccccc2)cc1,-20.15
COc1cccc(CN2C[C@@H]3N[C@H](C2)C3c2ccc(-c3cccc(C#N)c3)cc2)c1 (some centres not stated),-47.88
O=C1CN(S(=O)(=O)Cc2ccccc2)C[C@H]2[C@H](c3ccc(C#CCC4CCCC4)cc3)[C@@H](CO)N12,-5.381
O=C(C[C@H]1C[C@H]2c3cc(NS(=O)(=O)c4ccc(F)cc4)ccc3O[C@H]2[C@H](CO)O1)NCc1ccc(Oc2ccccc2)cc1,-67.08
COCC(=O)N1CC2(CN(Cc3ccccc3Cl)C2)c2c([nH]c3cc(OC)ccc23)[C@H]1CO,-40.43
O=C(c1ccccc1F)N1CC[C@@H]2[C@H]1c1cc(C#Cc3ccccc3F)ccc1N[C@@H]2CO,0.746
Cc1ccc(-c2ccccc2[C@H]2[C@@H](C#N)N(c3ncc(-c4ccccc4)s3)[C@H]2CO)cc1,-27.19
COc1cccc(S(=O)(=O)N2CCCCN3[C@H](CO)[C@@H](c4ccc(-c5cccnc5)cc4)[C@@H]3C2)c1,-29.78
CN(C)C(=O)c1cccc(-c2ccc3c(c2)[C@H]2[C@H](CCN2C(=O)Cc2ccccc2)[C@H](CO)N3)c1,-68.68
Cc1cccc(S(=O)(=O)N2CCCCN3[C@H](CO)[C@H](c4ccc(C#C[C@H](C)O)cc4)[C@@H]3C2)c1,-22.19
O=C(C[C@@H]1CC[C@@H]2[C@H](COC[C@H](O)CN2Cc2cc(F)ccc2F)O1)NCc1ccc(Cl)cc1,-19.48
CCC(=O)N1CC2(CN(Cc3ccc(Cl)cc3)C2)c2c(n(C)c3cc(OC)ccc23)[C@@H]1CO,-44.06
O=C(C[C@@H]1CC[C@H]2[C@@H](COC[C@@H](O)CN2Cc2ccc3c(c2)OCO3)O1)Nc1ccc(-c2ccccc2)cc1,-31.2
COc1ccc2c3c(n(C)c2c1)[C@@H](CO)N(Cc1ccccc1)CC31CCN(C(=O)c2ccccc2F)CC1,-41.55
OC[C@H]1[C@H](c2ccc(C#Cc3ccccc3F)cc2)[C@H]2CN(CC3CCOCC3)CCCCN21,-16.09
O=S(=O)(c1ccccc1)N1CC2(C1)[C@@H](c1ccccc1)[C@H](CO)N2CC1CC1,-6.798
OC[C@H]1[C@@H](c2ccccc2)C2(CN(Cc3nccs3)C2)N1CCC(F)(F)F,-18.96
COc1ccccc1C#Cc1ccc2c(c1)[C@H]1[C@H](CCN1C(=O)c1ccc(F)cc1)[C@H](CO)N2,-10.7
O=C(Nc1ccc2c(c1)[C@@H]1C[C@H](CC(=O)N3CCc4ccccc4C3)O[C@H](CO)[C@@H]1O2)c1ccc2c(c1)OCO2,-38.87
O=C(C[C@H]1CC[C@H]2[C@@H](COC[C@@H](O)CN2Cc2cc(F)ccc2F)O1)N[C@H]1CCN(Cc2ccccc2)C1,-3.827
CO[C@@H]1CN(C)C(=O)c2ccc(NC(=O)C3CCC3)cc2OC[C@@H](C)N(S(=O)(=O)c2ccc(Cl)cc2)C[C@H]1C,-6.777
O=C(c1ccccc1F)N1CC[C@@H]2[C@H](CO)Nc3ccc(C#Cc4ccccc4F)cc3[C@@H]21,-33.38
COc1cccc(S(=O)(=O)Nc2ccc3c(c2)[C@H]2C[C@@H](CC(=O)NCc4ccc(Cl)cc4)O[C@H](CO)[C@H]2O3)c1,-24.5
CCCN1[C@@H]2Cn3c(cccc3=O)[C@H]1[C@@H](C(=O)N[C@@H](C)c1ccccc1)[C@@H]2CO,-9.841
CO[C@@H]1CN(C)C(=O)c2ccc(NC(=O)c3nc4ccccc4s3)cc2OC[C@H](C)N(Cc2cccnc2)C[C@@H]1C,-29.34
COc1ccccc1S(=O)(=O)N(C)C[C@@H]1OCc2ccccc2-c2c(n(C)c3ccccc23)C(=O)N([C@H](C)CO)C[C@H]1C,-17.2
CN(C)C(=O)c1cccc(-c2ccc3c(c2)[C@H]2[C@H](CCN2Cc2ccccc2F)[C@@H](CO)N3)c1,-9.041
C[C@H](NC(=O)C[C@H]1CC[C@H]2[C@@H](COC[C@H](O)CN2Cc2ccc(C(F)(F)F)cc2)O1)c1ccccc1,-26.58
NCC[C@H]1CC[C@H](NC(=O)NC2CCCCC2)[C@H](CO)O1,-1.327
CCC(=O)N1CC(=O)N2[C@H](C1)[C@H](c1ccc(C#Cc3cccc(F)c3)cc1)[C@@H]2CO,-11.35
O=C1CN(S(=O)(=O)Cc2ccccc2)C[C@@H]2[C@@H](c3ccc(C#Cc4ccccc4)cc3)[C@@H](CO)N12,-65.97

The first 5 entries again:

| structure | activity change (%) |
|---|---|
| `O=C(C[C@H]1C[C@H]2c3cc(NS(=O)(=O)c4ccc(F)cc4)ccc3O[C@H]2[C@@H](CO)O1)N1CCc2ccccc2C1` | -15.45 |
| `COc1ccc2c3c(n(C)c2c1)[C@H](CO)N(CC1CC1)CC31CN(C(=O)c2ccccc2)C1` | -15.67 |
| `CN1c2ccc(-c3ccccc3)cc2[C@H]2[C@H](CCN2C(=O)c2ccccc2)[C@H]1CO` | -13.56 |
| `C[C@@H]1CN([C@@H](C)CO)C(=O)c2c(c3ccccc3n2C)-c2ccccc2CO[C@@H]1CN(C)S(=O)(=O)c1ccc(Cl)cc1` | -18.4 |
| `O=C(C1CCC1)N1CC[C@@H]2[C@H](CO)Nc3ccc(C#Cc4cccc(F)c4)cc3[C@@H]21` | -5.033 |